# Experimental data taken from the supplement of paper PMC6411743.
# ± gives the standard deviation of the averaged measurements. The list shows a part of the results, in another mix than the full data.
# Columns and labels:
# Experiment in all cases: NP40-soluble protein abundance relative to vehicle (solubility fold change) (ratio); higher = more soluble protein in presence of AMP-PNP
# ARL8A = biological target: T1, ARL8A (UniProt Q96BM9)
# T1 sequence (whole entry): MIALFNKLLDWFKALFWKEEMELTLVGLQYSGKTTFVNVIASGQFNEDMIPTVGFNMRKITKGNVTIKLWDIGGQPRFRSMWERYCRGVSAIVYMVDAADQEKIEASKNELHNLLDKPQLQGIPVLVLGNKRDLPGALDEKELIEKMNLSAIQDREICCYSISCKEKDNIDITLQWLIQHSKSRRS
# In short: (§1)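 Each value is a fold change relative to the detergent-processed vehicle, calculated per replicate from vsn-normalised intensities. Jurkat crude lysate received eight concentrations (0.1 to 10 mM) for 10 min at room temperature and 3 min at 37 °C, then was solubilised in 0.8% NP40 with benzonase (60 min, 4 °C). The ultracentrifuged supernatant was TMT-labelled and run by LC-MS/MS in three independent experiments.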
# ATXN7L3B = biological target: T2, ATXN7L3B (UniProt Q96GX2)
# T2 sequence (whole entry): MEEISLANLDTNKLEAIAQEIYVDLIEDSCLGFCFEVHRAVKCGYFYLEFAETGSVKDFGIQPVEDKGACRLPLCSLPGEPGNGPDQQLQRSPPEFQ
# In short: as §1
# DDRGK1 = biological target: T3, DDRGK1 (UniProt Q96HY6)
# T3 sequence (whole entry): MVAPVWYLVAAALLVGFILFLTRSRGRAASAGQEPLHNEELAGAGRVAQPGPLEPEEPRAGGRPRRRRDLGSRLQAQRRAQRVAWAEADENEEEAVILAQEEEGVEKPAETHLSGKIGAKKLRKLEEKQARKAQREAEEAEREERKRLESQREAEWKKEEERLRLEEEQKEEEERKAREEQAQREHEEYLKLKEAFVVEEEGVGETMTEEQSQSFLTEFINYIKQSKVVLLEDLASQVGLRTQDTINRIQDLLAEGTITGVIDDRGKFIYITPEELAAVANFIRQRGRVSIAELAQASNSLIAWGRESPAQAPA
# In short: as §1
# DNAJC1 = biological target: T4, DNAJC1 (UniProt Q96KC8)
# T4 sequence (whole entry): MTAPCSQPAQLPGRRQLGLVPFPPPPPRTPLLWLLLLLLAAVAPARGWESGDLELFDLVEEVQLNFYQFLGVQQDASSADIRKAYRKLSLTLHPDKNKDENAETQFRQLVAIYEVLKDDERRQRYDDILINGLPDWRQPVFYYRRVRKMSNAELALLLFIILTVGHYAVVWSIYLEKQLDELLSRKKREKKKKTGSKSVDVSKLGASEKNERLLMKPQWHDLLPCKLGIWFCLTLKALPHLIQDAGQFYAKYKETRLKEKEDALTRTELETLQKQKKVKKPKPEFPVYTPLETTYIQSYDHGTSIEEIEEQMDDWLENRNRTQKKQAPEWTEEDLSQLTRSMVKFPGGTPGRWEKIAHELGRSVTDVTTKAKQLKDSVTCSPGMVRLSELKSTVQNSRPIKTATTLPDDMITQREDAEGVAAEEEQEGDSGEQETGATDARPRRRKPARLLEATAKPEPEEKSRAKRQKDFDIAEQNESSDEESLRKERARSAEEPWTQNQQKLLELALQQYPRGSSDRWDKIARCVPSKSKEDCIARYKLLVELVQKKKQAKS
# In short: as §1
# ISOC1 = biological target: T5, ISOC1 (UniProt Q96CN7)
# T5 sequence (whole entry): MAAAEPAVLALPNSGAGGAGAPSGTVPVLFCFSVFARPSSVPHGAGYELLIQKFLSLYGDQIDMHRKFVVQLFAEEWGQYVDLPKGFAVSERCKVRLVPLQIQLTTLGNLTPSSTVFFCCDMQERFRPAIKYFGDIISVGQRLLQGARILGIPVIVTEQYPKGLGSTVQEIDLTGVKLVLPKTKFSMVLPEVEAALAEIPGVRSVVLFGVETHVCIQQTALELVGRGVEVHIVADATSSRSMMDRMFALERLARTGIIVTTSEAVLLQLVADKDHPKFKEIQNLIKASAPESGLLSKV
# In short: as §1
smiles,measurement,setting,value
Nc1ncnc2c1ncn2[C@@H]1O[C@H](COP(=O)(O)OP(=O)(O)NP(=O)(O)O)[C@@H](O)[C@H]1O [adenylyl imidodiphosphate],NP40-soluble protein abundance,ARL8A; concentration: 1mM,0.958 ± 0.019
same,NP40-soluble protein abundance,ARL8A; concentration: 2mM,0.928 ± 0.04
same,NP40-soluble protein abundance,ARL8A; concentration: 4mM,0.9093 ± 0.0026
same,NP40-soluble protein abundance,ARL8A; concentration: 6mM,0.933 ± 0.046
same,NP40-soluble protein abundance,ARL8A; concentration: 8mM,0.917 ± 0.018
same,NP40-soluble protein abundance,ARL8A; concentration: 10mM,0.932 ± 0.018
same,NP40-soluble protein abundance,ATXN7L3B; concentration: 1mM,1 ± 0.013
same,NP40-soluble protein abundance,ATXN7L3B; concentration: 2mM,1 ± 0.03
same,NP40-soluble protein abundance,ATXN7L3B; concentration: 4mM,0.951 ± 0.03
same,NP40-soluble protein abundance,ATXN7L3B; concentration: 6mM,0.959 ± 0.02
same,NP40-soluble protein abundance,ATXN7L3B; concentration: 8mM,0.945 ± 0.034
same,NP40-soluble protein abundance,ATXN7L3B; concentration: 10mM,0.935 ± 0.05
same,NP40-soluble protein abundance,DDRGK1; concentration: 1mM,1.08 ± 0.082
same,NP40-soluble protein abundance,DDRGK1; concentration: 2mM,1.17 ± 0.071
same,NP40-soluble protein abundance,DDRGK1; concentration: 4mM,1.13 ± 0.13
same,NP40-soluble protein abundance,DDRGK1; concentration: 6mM,1.03 ± 0.061
same,NP40-soluble protein abundance,DDRGK1; concentration: 8mM,1.05 ± 0.048
same,NP40-soluble protein abundance,DDRGK1; concentration: 10mM,1.05 ± 0.054
same,NP40-soluble protein abundance,DNAJC1; concentration: 1mM,1 ± 0.017
same,NP40-soluble protein abundance,DNAJC1; concentration: 2mM,1.07 ± 0.095
same,NP40-soluble protein abundance,DNAJC1; concentration: 4mM,0.9831 ± 0.0063
same,NP40-soluble protein abundance,DNAJC1; concentration: 6mM,0.975 ± 0.016
same,NP40-soluble protein abundance,DNAJC1; concentration: 8mM,0.986 ± 0.038
same,NP40-soluble protein abundance,DNAJC1; concentration: 10mM,0.994 ± 0.018
same,NP40-soluble protein abundance,ISOC1; concentration: 1mM,1 ± 0.04
same,NP40-soluble protein abundance,ISOC1; concentration: 2mM,0.939 ± 0.065
same,NP40-soluble protein abundance,ISOC1; concentration: 4mM,0.998 ± 0.024
same,NP40-soluble protein abundance,ISOC1; concentration: 6mM,0.994 ± 0.011
same,NP40-soluble protein abundance,ISOC1; concentration: 8mM,0.9802 ± 0.0032
same,NP40-soluble protein abundance,ISOC1; concentration: 10mM,0.957 ± 0.015

# Some of the entries above, set out differently:
smiles | measurement | setting | value
Nc1ncnc2c1ncn2[C@@H]1O[C@H](COP(=O)(O)OP(=O)(O)NP(=O)(O)O)[C@@H](O)[C@H]1O [adenylyl imidodiphosphate] | NP40-soluble protein abundance | ARL8A; concentration: 6mM | 0.933 ± 0.046
same | NP40-soluble protein abundance | ISOC1; concentration: 6mM | 0.994 ± 0.011
